Assay results as given in patent EP0073865B1, “Derivatives of iodothyronine compounds and their use in an assay for the free iodothyronine compounds” (AMERSHAM INTERNATIONAL plc, priority 1981, dated 1983).

Key:
[1] = Free-T4 assay of serum samples diluted with water or buffer (independence of dilution); parameters: species or system human; details: assay of European Patent Specification No. 0026 103, compound as labelled tracer
[2] = Binding to polystyrene assay tubes (assay blank)

Row | Structure (SMILES) | free-T4 concentration unaffected by dilution of the serum sample [1] | binding to assay tubes [2]
1 | COC(=O)[C@H](Cc1cc(I)c(Oc2cc(I)c(O)c(I)c2)c(I)c1)NC(C)=O [N-Acetyl-thyroxine-methyl ester, N-acetyl-thyroxine-methyl ester, reference compound] | only approximately true | binds significantly to polystyrene assay tubes
2 | O=C(O)CN(CCN(CC(=O)O)CC(=O)NC(Cc1cc(I)c(Oc2cc(I)c(O)c(I)c2)c(I)c1)C(=O)O)CC(=O)O (stereo not shown) [T4.EDTA, 1-{3',5'-di-iodo-4' (3",5"-di-iodo-4"-Hydroxyphenoxy)phenyl} 2-carboxy-6,9-dicarboxymethyl-4-oxo-3,6,9,-triazaundecan-11-oic acid] | much more accurately true | no significant tendency to bind to assay tubes
